Test results reported in the M2OR odorant receptor database.
The list shows a part of the results, in another mix than the full data. The calls were merged from several studies; some rest on single wells. The list shows a part of the results.

Key:
Settings in all cases: stereoisomer not certain
[1] = target: T1, OR5T1 (Homo sapiens) (UniProt Q8NG75)
T1 sequence (whole entry): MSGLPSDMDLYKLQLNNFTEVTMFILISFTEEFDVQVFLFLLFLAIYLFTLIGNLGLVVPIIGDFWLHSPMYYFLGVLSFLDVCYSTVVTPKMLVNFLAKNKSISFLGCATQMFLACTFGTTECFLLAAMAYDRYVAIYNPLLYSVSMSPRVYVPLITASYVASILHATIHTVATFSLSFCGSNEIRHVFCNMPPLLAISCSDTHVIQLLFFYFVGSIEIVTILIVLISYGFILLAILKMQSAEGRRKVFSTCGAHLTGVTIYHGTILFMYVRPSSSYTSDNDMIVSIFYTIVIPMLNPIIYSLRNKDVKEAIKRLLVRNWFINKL
Summary of the method: (§1)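 Transient luciferase assays in mammalian cell lines were common, though methods varied by source. The values come from published papers and their supplementary material, with extra details from the original authors when needed. Responsive refers to a measured signal the original authors judged statistically different from baseline, and non-responsive (inactive) to the remainder.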

[2] = tested on: T2, OR5T1
T2 sequence (whole entry): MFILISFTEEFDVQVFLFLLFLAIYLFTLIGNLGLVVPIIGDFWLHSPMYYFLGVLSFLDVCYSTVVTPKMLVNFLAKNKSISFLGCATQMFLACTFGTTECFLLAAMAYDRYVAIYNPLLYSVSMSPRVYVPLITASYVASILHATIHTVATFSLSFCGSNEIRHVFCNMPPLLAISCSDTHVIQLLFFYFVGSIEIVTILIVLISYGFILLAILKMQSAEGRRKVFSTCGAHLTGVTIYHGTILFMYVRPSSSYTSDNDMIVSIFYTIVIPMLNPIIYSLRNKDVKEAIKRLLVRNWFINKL
Summary of the method: as §1

[3] = tested on: T3, OR5T2
T3 sequence (whole entry): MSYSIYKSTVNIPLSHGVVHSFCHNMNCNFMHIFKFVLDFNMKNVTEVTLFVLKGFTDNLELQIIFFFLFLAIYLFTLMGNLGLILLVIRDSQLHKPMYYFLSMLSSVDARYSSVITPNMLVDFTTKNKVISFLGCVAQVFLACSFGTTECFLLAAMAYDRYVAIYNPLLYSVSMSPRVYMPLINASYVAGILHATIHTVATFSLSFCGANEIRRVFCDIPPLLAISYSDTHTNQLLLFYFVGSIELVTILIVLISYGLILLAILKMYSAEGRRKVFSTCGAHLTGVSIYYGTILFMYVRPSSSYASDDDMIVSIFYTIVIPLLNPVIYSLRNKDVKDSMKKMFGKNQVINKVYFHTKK
Summary of the method: as §1

[4] = tested on: T4, OR5T2; remark: listed apart in the source
T4 sequence (whole entry): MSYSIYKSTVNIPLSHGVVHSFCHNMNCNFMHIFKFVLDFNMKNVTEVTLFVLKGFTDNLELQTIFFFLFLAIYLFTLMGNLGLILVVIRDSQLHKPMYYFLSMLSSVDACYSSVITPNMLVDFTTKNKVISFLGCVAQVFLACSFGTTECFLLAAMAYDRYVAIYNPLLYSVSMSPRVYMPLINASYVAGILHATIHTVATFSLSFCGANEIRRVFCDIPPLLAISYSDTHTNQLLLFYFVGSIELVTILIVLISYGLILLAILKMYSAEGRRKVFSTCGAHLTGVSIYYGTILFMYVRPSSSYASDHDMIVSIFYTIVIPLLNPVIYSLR
Summary of the method: as §1

[5] = tested on: T5, OR5T3
T5 sequence (whole entry): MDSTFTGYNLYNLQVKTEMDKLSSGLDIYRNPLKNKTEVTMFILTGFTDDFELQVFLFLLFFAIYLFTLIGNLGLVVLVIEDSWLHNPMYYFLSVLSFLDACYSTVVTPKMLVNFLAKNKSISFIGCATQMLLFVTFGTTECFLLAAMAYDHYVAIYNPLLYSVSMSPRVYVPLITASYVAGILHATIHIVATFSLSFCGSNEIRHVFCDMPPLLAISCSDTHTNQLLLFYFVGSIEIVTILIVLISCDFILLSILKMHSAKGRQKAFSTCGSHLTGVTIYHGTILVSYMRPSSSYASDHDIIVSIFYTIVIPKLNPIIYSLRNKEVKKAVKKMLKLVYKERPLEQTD
Summary of the method: as §1

[6] = target: T6, OR5V1 (Homo sapiens) (UniProt Q9UGF6)
T6 sequence (whole entry): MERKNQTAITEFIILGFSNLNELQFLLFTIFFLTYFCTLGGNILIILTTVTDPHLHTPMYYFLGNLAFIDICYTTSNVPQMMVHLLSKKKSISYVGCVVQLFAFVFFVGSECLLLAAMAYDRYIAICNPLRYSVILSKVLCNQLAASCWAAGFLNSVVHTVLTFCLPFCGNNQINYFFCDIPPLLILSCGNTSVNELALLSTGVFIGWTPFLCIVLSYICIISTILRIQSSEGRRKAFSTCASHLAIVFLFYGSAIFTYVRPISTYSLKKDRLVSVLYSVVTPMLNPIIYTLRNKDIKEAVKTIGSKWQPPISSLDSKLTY
Summary of the method: as §1

[7] = tested on: T7, OR5W2
T7 sequence (whole entry): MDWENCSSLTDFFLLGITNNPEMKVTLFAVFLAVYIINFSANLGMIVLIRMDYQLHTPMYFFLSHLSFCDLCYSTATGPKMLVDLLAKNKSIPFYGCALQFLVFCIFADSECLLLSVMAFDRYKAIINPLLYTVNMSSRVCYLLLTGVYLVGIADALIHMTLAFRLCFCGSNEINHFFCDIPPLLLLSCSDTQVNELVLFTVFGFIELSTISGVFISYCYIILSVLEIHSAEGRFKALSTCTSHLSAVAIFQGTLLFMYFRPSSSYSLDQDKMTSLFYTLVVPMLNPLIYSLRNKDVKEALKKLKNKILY
Summary of the method: as §1

[8] = target: T8, OR6A2 (Homo sapiens) (UniProt O95222)
T8 sequence (whole entry): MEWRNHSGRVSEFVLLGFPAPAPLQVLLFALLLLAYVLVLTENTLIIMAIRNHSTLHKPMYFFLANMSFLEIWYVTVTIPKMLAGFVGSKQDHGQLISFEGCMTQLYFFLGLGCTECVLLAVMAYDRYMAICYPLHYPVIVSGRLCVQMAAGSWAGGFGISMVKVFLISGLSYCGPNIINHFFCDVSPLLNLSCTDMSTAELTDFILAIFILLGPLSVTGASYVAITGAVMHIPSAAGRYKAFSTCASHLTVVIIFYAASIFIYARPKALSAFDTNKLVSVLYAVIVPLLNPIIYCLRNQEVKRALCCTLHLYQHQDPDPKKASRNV
Summary of the method: as §1

[9] = tested on: T9, OR6B1
T9 sequence (whole entry): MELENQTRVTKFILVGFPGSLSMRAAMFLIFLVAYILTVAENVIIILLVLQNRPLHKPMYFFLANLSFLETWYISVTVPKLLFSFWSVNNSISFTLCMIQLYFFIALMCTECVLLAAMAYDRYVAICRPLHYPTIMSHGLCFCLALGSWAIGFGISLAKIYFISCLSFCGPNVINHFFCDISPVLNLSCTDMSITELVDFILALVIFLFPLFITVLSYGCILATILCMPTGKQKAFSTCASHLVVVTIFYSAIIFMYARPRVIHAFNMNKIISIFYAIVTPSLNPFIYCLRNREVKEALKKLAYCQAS
Summary of the method: as §1

[10] = tested on: T10, OR6B2
T10 sequence (whole entry): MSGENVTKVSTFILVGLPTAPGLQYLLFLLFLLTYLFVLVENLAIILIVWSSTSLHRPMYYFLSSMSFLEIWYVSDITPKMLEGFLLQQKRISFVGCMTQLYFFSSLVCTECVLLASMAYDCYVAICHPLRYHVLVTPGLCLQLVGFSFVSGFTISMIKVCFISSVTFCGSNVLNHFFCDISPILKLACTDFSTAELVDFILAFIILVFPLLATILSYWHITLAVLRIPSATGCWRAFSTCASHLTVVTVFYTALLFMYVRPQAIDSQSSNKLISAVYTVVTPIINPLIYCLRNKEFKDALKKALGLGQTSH
Summary of the method: as §1

[11] = tested on: T11, OR6B3
T11 sequence (whole entry): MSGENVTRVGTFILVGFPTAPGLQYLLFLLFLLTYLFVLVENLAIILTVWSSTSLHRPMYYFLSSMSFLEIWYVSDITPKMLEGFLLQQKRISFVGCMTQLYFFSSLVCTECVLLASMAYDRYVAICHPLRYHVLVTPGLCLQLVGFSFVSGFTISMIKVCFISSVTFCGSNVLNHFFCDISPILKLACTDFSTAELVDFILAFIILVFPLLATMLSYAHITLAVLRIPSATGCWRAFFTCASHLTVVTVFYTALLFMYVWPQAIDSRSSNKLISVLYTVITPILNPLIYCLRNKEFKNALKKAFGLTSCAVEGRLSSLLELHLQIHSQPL
Summary of the method: as §1

[12] = tested on: T12, OR6C1
T12 sequence (whole entry): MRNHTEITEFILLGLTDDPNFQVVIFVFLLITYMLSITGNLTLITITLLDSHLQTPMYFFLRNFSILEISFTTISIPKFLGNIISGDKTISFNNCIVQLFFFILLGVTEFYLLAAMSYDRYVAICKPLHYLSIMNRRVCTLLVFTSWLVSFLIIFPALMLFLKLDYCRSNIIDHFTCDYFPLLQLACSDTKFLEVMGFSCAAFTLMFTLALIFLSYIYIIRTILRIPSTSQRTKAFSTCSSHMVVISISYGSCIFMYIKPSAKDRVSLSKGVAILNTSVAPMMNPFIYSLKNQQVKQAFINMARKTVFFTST
Summary of the method: as §1

[13] = target: T13, OR6C2 (Homo sapiens) (UniProt Q9NZP2)
T13 sequence (whole entry): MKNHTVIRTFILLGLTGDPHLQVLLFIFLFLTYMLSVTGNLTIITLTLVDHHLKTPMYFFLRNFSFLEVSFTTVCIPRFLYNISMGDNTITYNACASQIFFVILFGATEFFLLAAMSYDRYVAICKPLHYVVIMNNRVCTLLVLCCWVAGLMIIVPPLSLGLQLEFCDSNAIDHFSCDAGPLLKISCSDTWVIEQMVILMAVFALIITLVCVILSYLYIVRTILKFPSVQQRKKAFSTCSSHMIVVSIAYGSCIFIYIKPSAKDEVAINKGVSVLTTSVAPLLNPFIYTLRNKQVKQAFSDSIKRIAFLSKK
Summary of the method: as §1

[14] = target: T14, OR6C3 (Homo sapiens) (UniProt Q9NZP0)
T14 sequence (whole entry): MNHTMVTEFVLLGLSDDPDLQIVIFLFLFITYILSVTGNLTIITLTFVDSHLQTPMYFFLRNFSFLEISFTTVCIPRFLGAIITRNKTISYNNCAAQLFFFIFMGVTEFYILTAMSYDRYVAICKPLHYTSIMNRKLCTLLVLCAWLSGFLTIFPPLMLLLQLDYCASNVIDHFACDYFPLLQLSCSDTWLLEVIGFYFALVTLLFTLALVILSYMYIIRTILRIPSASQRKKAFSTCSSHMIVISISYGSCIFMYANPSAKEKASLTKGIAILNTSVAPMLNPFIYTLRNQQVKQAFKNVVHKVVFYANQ
Summary of the method: as §1

Measured: odorant receptor agonist call;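 note: active if original authors judged signal statistically different from baseline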

CC(C)(C)c1ccc(CCC=O)cc1
inactive: all assays above

O=C1CCCCCCCCCCCCCCO1
inactive: all assays above

CC(C)CCC(=O)O
inactive: all assays above

O=CCc1ccccc1
inactive: all assays above

C=CCc1ccc(OC)c(OC)c1
inactive: all assays above

2 consecutive records out of the list so far:
O=CCc1ccccc1
inactive: all assays above

C=CCc1ccc(OC)c(OC)c1
inactive: all assays above
